Laboratory results: publication PMC10799895
No constants are given. Whether binding was seen depends on the method and setting. For some of these results: In cells and extracts the contact can be indirect. Some binding calls cover weakened binding; strength is not graded here. For some of these results: Sequences can lack the tags named with a protein. Blank lines part the entries; values can stand above or below the substance they belong to.

Chains of the proteins cited; added tags and fusions are not shown. Residues count along the entry.
UniProt P56962: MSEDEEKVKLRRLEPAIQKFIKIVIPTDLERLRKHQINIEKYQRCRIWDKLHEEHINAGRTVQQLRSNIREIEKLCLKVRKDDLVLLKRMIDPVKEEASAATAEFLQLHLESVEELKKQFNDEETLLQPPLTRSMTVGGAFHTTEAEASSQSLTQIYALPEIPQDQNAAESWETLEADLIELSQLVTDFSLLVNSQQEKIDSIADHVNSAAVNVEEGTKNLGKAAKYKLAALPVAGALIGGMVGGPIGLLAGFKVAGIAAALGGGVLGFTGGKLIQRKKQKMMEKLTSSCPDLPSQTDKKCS
UniProt Q9BXW4, residues 1-126: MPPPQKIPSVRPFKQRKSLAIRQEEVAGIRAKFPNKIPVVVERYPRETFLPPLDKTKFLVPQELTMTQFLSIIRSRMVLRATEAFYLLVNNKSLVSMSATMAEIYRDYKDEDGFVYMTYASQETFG

Tests used:
[1] = molecular target: STX17 (construct not shown) (UniProt P56962); experiment: co-IP
[2] = molecular target: T1, STX18-Flag (UniProt Q9P2W9); experiment: co-IP
T1 sequence: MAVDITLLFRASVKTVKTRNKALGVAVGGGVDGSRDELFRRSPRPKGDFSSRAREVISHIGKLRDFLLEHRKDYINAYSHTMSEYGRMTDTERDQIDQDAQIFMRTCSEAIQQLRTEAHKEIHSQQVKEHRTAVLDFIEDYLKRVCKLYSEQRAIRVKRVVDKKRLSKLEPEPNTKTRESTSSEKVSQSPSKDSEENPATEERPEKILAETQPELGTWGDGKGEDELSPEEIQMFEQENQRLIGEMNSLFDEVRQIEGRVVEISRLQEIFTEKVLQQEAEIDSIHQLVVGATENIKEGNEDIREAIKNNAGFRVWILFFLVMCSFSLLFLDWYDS

[3] = molecular target: GFP-LC3C (UniProt Q9BXW4); experiment: co-IP
[4] = molecular target: GST-LC3C (UniProt Q9BXW4); experiment: pull-down; GST pull-down of LC3C with ATG14 with or without added STX18 (Fig. 3e); both purified
[5] = molecular target: GST-LC3C (UniProt Q9BXW4); experiment: pull-down; GST pull-down in vitro: GST-tagged protein on GST beads with the His-tagged protein overnight at 4 °C in 20 mM Tris pH 7.4, 300 mM NaCl, 0.1% NP-40, 1 mM PMSF; three washes; western blot; both purified
[6] = molecular target: Flag-LC3C (UniProt Q9BXW4); experiment: co-IP
[7] = molecular target: T2, endogenous STX18 (UniProt Q9P2W9); experiment: co-IP; endogenous IP: precleared lysate, primary antibody overnight, protein A/G plus-agarose 4 h; cells with OA or CQ treatment or Atg7 knock-down
T2 sequence: T1 sequence

binding [1]: binds
binding [2]: binds
Substance: ATG14 (wild type; construct not shown) (from UniProt Q6ZNE5 1-492)

binding [3]: binds
Substance: ATG14-Flag (from UniProt Q6ZNE5 1-492)

binding [2]: binds
Substance: ATG14-HA (from UniProt Q6ZNE5 1-492)

binding [4]: binds
binding [5]: binds
Substance: His-sumo-ATG14 (from UniProt Q6ZNE5 1-492)

Substance: M-HA (from UniProt P0DTC5 1-222)
binding [2]: binds

binding [6]: binds
Substance: Myc-ATG14 (from UniProt Q6ZNE5 1-492)

binding [7]: binds
Substance: endogenous ATG14 (from UniProt Q6ZNE5 1-492)

binding [2]: binds
Substance: endogenous Beclin1 (from UniProt Q14457 1-450)
